# Source: paper PMC4956306
# Chains of the proteins cited; added tags and fusions are not shown.
# UniProt O43237: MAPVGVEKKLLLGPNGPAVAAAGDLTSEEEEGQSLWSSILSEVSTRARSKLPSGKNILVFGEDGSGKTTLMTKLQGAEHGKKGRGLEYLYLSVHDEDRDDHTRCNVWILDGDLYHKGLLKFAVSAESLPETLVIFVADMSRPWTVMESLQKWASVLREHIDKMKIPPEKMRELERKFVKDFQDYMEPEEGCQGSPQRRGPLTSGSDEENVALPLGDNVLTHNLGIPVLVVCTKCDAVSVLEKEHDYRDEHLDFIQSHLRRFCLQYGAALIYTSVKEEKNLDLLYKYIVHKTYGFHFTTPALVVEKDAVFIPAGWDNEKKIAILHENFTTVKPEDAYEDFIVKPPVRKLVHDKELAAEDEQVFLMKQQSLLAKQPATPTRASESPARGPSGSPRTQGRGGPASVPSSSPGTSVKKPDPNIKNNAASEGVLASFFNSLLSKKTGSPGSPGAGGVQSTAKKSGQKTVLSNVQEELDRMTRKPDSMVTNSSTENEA
# UniProt O60566: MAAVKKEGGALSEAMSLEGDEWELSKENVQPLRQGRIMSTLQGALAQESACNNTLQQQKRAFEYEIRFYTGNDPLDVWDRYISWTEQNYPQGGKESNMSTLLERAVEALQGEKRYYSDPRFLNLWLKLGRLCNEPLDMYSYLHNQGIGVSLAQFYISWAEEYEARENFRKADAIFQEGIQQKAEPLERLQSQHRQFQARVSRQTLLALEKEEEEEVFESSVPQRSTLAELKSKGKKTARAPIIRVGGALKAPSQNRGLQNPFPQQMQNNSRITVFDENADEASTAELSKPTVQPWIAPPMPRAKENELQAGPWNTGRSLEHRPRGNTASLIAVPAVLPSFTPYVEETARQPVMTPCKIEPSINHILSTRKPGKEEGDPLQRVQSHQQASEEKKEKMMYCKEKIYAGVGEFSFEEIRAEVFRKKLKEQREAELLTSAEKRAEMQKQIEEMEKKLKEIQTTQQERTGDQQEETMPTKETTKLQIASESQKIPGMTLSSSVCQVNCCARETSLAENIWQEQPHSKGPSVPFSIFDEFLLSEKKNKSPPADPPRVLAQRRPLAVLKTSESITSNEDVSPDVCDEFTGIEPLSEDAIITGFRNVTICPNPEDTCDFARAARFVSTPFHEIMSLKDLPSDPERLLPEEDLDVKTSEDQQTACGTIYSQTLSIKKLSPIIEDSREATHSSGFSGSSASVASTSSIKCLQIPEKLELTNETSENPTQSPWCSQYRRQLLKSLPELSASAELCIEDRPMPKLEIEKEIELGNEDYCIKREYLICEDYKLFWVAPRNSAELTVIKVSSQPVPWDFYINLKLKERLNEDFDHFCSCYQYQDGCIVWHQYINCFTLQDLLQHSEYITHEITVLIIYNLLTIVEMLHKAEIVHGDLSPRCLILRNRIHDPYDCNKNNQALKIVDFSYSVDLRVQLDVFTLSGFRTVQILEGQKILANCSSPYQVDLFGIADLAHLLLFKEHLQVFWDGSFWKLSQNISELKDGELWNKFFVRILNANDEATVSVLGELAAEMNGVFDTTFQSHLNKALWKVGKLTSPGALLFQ
# Results are given in words; binding and its absence hold for the method and conditions named. In cells and extracts the contact can be indirect. Some binding calls cover weakened binding; strength is not graded here.
# Target: human LIC2-MTAP-MVenus (dynein Light Intermediate Chain 2 fused to a multifunctional C-terminal affinity purification tag) (human) (UniProt O43237)
# Test: pull-down; LIC2-MTAP captured by its SBP tag on a Streptactin-HP column from mitotic cryo-lysates of the stable U2OS line (nocodazole 400 nM, released 1 h); lysis 50 mM Tris pH 7.5, 125 mM NaCl, 1 mM EGTA, 0.2 NP-40, 5% glycerol; wash 250 mM NaCl, 0.2% NP-40; elution with 2.5 mM D-biotin; immunoblotting; empty MTAP vector line as control
row,binding,Molecule
1,binds,BubR1 (from UniProt O60566 1-1050)
2,binds,"Mad1 (protein, UniProt Q9Y6D9 1-718) MEDLGENTMVLSTLRSLNNFISQRVEGGSGLDISTSAPGSLQMQYQQSMQLEERAEQIRSKSHLIQVEREKMQMELSHKRARVELERAASTSARNYEREVDRNQELLTRIRQLQEREAGAEEKMQEQLERNRQCQQNLDAASKRLREKEDSLAQAGETINALKGRISELQWSVMDQEMRVKRLESEKQELQEQLDLQHKKCQEANQKIQELQASQEARADHEQQIKDLEQKLSLQEQDAAIVKNMKSELVRLPRLERELKQLREESAHLREMRETNGLLQEELEGLQRKLGRQEKMQETLVGLELENERLLAKLQSWERLDQTMGLSIRTPEDLSRFVVELQQRELALKDKNSAVTSSARGLEKARQQLQEELRQVSGQLLEERKKRETHEALARRLQKRVLLLTKERDGMRAILGSYDSELTPAEYSPQLTRRMREAEDMVQKVHSHSAEMEAQLSQALEELGGQKQRADMLEMELKMLKSQSSSAEQSFLFSREEADTLRLKVEELEGERSRLEEEKRMLEAQLERRALQGDYDQSRTKVLHMSLNPTSVARQRLREDHSQLQAECERLRGLLRAMERGGTVPADLEAAAASLPSSKEVAELKKQVESAELKNQRLKEVFQTKIQEFRKACYTLTGYQIDITTENQYRLTSLYAEHPGDCLIFKATSPSGSKMQLLETEFSHTVGELIEVHLRRQDSIPAFLSSLTLELFSRQTVA"
3,binds,"Zw10 (protein, UniProt O43264 1-779) MASFVTEVLAHSGRLEKEDLGTRISRLTRRVEEIKGEVCNMISKKYSEFLPSMQSAQGLITQVDKLSEDIDLLKSRIESEVRRDLHVSTGEFTDLKQQLERDSVVLSLLKQLQEFSTAIEEYNCALTEKKYVTGAQRLEEAQKCLKLLKSRKCFDLKILKSLSMELTIQKQNILYHLGEEWQKLIVWKFPPSKDTSSLESYLQTELHLYTEQSHKEEKTPMPPISSVLLAFSVLGELHSKLKSFGQMLLKYILRPLASCPSLHAVIESQPNIVIIRFESIMTNLEYPSPSEVFTKIRLVLEVLQKQLLDLPLDTDLENEKTSTVPLAEMLGDMIWEDLSECLIKNCLVYSIPTNSSKLQQYEEIIQSTEEFENALKEMRFLKGDTTDLLKYARNINSHFANKKCQDVIVAARNLMTSEIHNTVKIIPDSKINVPELPTPDEDNKLEVQKVSNTQYHEVMNLEPENTLDQHSFSLPTCRISESVKKLMELAYQTLLEATTSSDQCAVQLFYSVRNIFHLFHDVVPTYHKENLQKLPQLAAIHHNNCMYIAHHLLTLGHQFRLRLAPILCDGTATFVDLVPGFRRLGTECFLAQMRAQKGELLERLSSARNFSNMDDEENYSAASKAVRQVLHQLKRLGIVWQDVLPVNIYCKAMGTLLNTAISEVIGKITALEDISTEDGDRLYSLCKTVMDEGPQVFAPLSEESKNKKYQEEVPVYVPKWMPFKELMMMLQASLQEIGDRWADGKGPLAAAFSSSEVKALIRALFQNTERRAAALAKIK"
